Reference: PubChem BioAssay AID1259308 (NCATS, 2017)

- Test: 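Genes whose loss raises luciferase production in HEK293 cells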 (primary screen)
- Cell system: human HEK293 embryonic kidney cells stably expressing firefly luciferase (HEK-CMV-Luc2-Hygro)
- Reagents: single siRNA against human genes, 0.8 pmol siRNA per well
- Duration: 72 h
- Detection: 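Luciferase light (ONE-Glo) measured on one replicate plate set and viability (CellTiter-Glo) on the other, scaled to a negative control siRNA, with robust z-scores and luciferase per cell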
- Direction: total luciferase, z-score and total luciferase, % of control: higher = more reporter protein produced; luciferase per cell, z-score: higher = more reporter output per viable cell; viable cells, % of control: higher = more viable cells
- Rule for the call: 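An siRNA counts as active if its total luciferase robust z-score exceeds 3; genes with two or more such siRNAs out of three were retested with fresh siRNAs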
- Meaning of the calls: active = raised luciferase; inactive = no rise
Shown is a random part of about 59,000 deposited reagents. Over the whole deposit, about 1,510 (2.6%) got an active call. 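Calls use total luciferase alone and ignore viability, so some active siRNAs may act by altering cell number.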 The numbers tell different reagents against one gene apart.

gene symbol | reagent | total luciferase, z-score | total luciferase, % of control | luciferase per cell, z-score | viable cells, % of control | call
PIP5KL1 (phosphatidylinositol-4-phosphate 5-kinase like 1) | 1 | 1.1 | 104 | 1.49 | 78.2 | inactive
PIP5KL1 (phosphatidylinositol-4-phosphate 5-kinase like 1) | 2 | 3.19 | 145 | 2.38 | 86.9 | active
PIP5KL1 (phosphatidylinositol-4-phosphate 5-kinase like 1) | 3 | 0.732 | 96.4 | 0.77 | 88 | inactive
MCOLN2 (mucolipin TRP cation channel 2) | 1 | 0.0568 | 83 | 0.331 | 85 | inactive
MCOLN2 (mucolipin TRP cation channel 2) | 2 | -0.21 | 77.7 | -0.243 | 92.6 | inactive
MCOLN2 (mucolipin TRP cation channel 2) | 3 | -1.19 | 58.2 | -0.814 | 80.6 | inactive
SBSN (suprabasin) | 1 | 0.113 | 84.1 | 0.133 | 90.8 | inactive
SBSN (suprabasin) | 2 | 0.69 | 95.6 | 0.1 | 104 | inactive
SBSN (suprabasin) | 3 | 0.745 | 96.7 | 0.994 | 83.2 | inactive
TESK1 (testis associated actin remodelling kinase 1) | 1 | 0.777 | 97.3 | 1.24 | 78.6 | inactive
TESK1 (testis associated actin remodelling kinase 1) | 2 | 1.57 | 113 | 1.22 | 91.7 | inactive
TESK1 (testis associated actin remodelling kinase 1) | 3 | 0.0827 | 83.5 | -0.287 | 101 | inactive

Active calls (from the list above):
gene symbol | reagent | total luciferase, z-score | total luciferase, % of control | luciferase per cell, z-score | viable cells, % of control | call
PIP5KL1 (phosphatidylinositol-4-phosphate 5-kinase like 1) | 2 | 3.19 | 145 | 2.38 | 86.9 | active

The results go on.
gene symbol | reagent | total luciferase, z-score | total luciferase, % of control | luciferase per cell, z-score | viable cells, % of control | call
NDUFAF3 (NADH:ubiquinone oxidoreductase complex assembly factor 3) | 1 | 0.689 | 95.6 | 0.746 | 87.8 | inactive
NDUFAF3 (NADH:ubiquinone oxidoreductase complex assembly factor 3) | 2 | -0.873 | 64.5 | -0.833 | 89.8 | inactive
NDUFAF3 (NADH:ubiquinone oxidoreductase complex assembly factor 3) | 3 | 1.5 | 112 | 2.48 | 65 | inactive
VRK3 (VRK serine/threonine kinase 3) | 1 | 1.18 | 105 | -0.00456 | 118 | inactive
VRK3 (VRK serine/threonine kinase 3) | 2 | -0.174 | 78.4 | -0.607 | 103 | inactive
VRK3 (VRK serine/threonine kinase 3) | 3 | -0.223 | 77.5 | -0.711 | 104 | inactive
OPHN1 (oligophrenin 1) | 1 | 1.03 | 102 | 0.974 | 88.6 | inactive
OPHN1 (oligophrenin 1) | 2 | 0.989 | 102 | 1.12 | 84.5 | inactive
OPHN1 (oligophrenin 1) | 3 | -0.1 | 79.9 | -0.567 | 104 | inactive
HAGH (hydroxyacylglutathione hydrolase) | 1 | -0.207 | 77.8 | 0.551 | 75.2 | inactive
HAGH (hydroxyacylglutathione hydrolase) | 2 | 0.243 | 86.7 | 1.25 | 69.7 | inactive
HAGH (hydroxyacylglutathione hydrolase) | 3 | -2.19 | 38.3 | -1.53 | 64.1 | inactive
